## Percent effect of library compounds

Data taken from ChEMBL document CHEMBL3988442, “University of Dundee, Small-Polar-MMV Screening Library” (2021).

The filed quantity is “Percent Effect” (%).
The controls that fix the scale are not given in the record; negative values are as filed.
The compounds are a random part of those screened.

Mtb glucose medium: 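Phenotypic screen: M. tuberculosis growth, glucose 7H9 medium, 3 days; the read-out is not stated. Tested at 500 µM. Higher reads as more growth inhibition (inferred: compounds with an IC50 in retests scored well above the rest). Size under these conditions: about 18,000 compounds, about 1,400 of them at 50% or above in at least one test.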
Mtb cholesterol medium: 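Growth of Mycobacterium tuberculosis over 4 days (cholesterol / DPPC medium with tyloxapol); the read-out is not stated. Compounds at 500 µM. Direction is inferred from retests: higher values go with more growth inhibition. Of about 18,000 compounds tested this way, about 900 (5%) reached 50% or more in at least one test.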

compound	Mtb glucose medium	Mtb cholesterol medium
Cc1nnc(SCCSC(C)(C)C)n1CC(N)=O	15.94	-2.795
CCCS(=O)(=O)NCC(O)C1CCCC1 (stereo unspecified)	51.04	36.66
OCc1c[nH]c2cccc(F)c12	23.9	16.36
O=C1CCCC(c2ccccc2)N1 (stereo unspecified)	9.724	5.988
COc1ccc(Cl)c(S(=O)(=O)NCCC(C)N)c1 (stereo unspecified)	59.09	41.78
[H][C@](N)(CO)c1ccccc1	2.698	2.625
CC1CCN(C(CN)c2cccs2)CC1 (stereo unspecified)	45.09	71.01
CC1(C#N)CCCN(C(=O)Cc2ccccc2O)C1 (stereo unspecified)	19.35	9.867
CCCNC(=O)c1[nH]cnc1C(=O)NC(C)C	19.69	12.14
COCCN1CCN(CCCN2CCCC2=O)CC1	-9.08	-0.2987
COc1ccc(CC(C)=O)cn1	-2.998	-4.907
NCc1cccc(OCC(F)(F)F)n1	0.9733	-1.653
Cc1cccc(OCC(=O)NC2CCCNC2)c1 (stereo unspecified)	32.84	25.87
COCCN1CCN(Cc2ccc(C#N)o2)CC1=O	8.084	2.02
Cn1nccc1C1(O)CCOCC1	3.598	3.19
O=C(C(c1cccnc1)N1CCOCC1)N1CCCC1 (stereo unspecified)	-6.052	-1.993
CCS(=O)(=O)CCNC(=O)C(CC#N)c1ccccc1 (stereo unspecified)	10.79	-7.843
COCCCNC(=O)c1ccc(Cn2cncn2)cc1	16.83	2.205
Cc1cccc(NCC2CCN(CCC(N)=O)C2)n1 (stereo unspecified)	3.153	10.53
Cc1ccccc1CNC(=O)CSc1nnc(N)s1	-0.7244	-0.571
CCc1nc(CNc2ccc(C#N)nc2)cs1	66.74	64.56
CCNCc1ccc2c(c1)OCO2	62.73	31.3
Cc1cccc(NC(=O)C2CCCN(CCC#N)C2)n1 (stereo unspecified)	9.657	-1.525
O=C(Cc1cccs1)NCC(F)(F)F	28.16	29.63
COC1(CN)CCC(C(F)F)CC1 (stereo unspecified)	7.84	3.175
CCN(CC(N)=O)C(C)c1cccc(OC)c1 (stereo unspecified)	17.76	20.45
COC(=O)c1ccc(NCC(=O)N2CCCCC2)cc1	-6.858	-6.299
CN(Cc1ccc(Cl)o1)CC1COCCO1 (stereo unspecified)	0.1203	1.523
CC(N)C(=O)Nc1ccccc1 (stereo unspecified)	11.75	3.708
CN(C)CC[C@H](O)c1cccs1	-3.381	-1.639
Cc1nn(CCO)c(C)c1CNCC(=O)NC(C)(C)C	2.038	2.608
COC(C)(CN)c1ccccc1 (stereo unspecified)	10.38	1.335
Cc1ccc2nc(COCC(=O)NCCCO)[nH]c2c1	1.118	0.5185
COc1cc(CN2CCCNCC2)cc2c1OCO2	14.7	-0.6194
CCCn1nnc(NC(=O)COc2ccc(Cl)cc2)n1	100	110.9
NC(=O)CSCCC(=O)NCc1csc(Br)c1	39.62	-5.173
CC(C)c1ncc(C(=O)NC2(c3nnc[nH]3)CCC2)s1	-0.2673	2.605
Cc1ccsc1CN(CCN(C)C)C(=O)CN	-13.2	-12.95
Cn1cc(C(C)(O)CNc2ncccc2C#N)cn1 (stereo unspecified)	-4.984	-12.35
CSCc1ccc(C(=O)NCCc2cccnc2)o1	35.56	17.62
Cc1scc(-c2nnc(SCC(N)=O)n2C)c1C	45.52	39.64
CC1(C)CNC1c1ccncc1 (stereo unspecified)	3.671	-17.49
COCC1CCN(C(=O)CCC2CCCO2)CC1 (stereo unspecified)	41.14	33.67
CCOc1cc(CN)ccn1	45.16	-0.4667
CCO[C@H]1CN(Cc2ccccc2C#N)C[C@@H]1O	10.8	4.033
CCS(=O)(=O)NCCCNCc1c(C)nn(C)c1OC	2.282	8.571
Cn1nccc1C(N)=O	9.803	19.68
O=C1C(N2CCNCC2)CCCN1CC(F)(F)F (stereo unspecified)	-4.578	-5.683
NS(=O)(=O)NCCc1ccc(-n2cccn2)cc1	22.73	5.87
Cn1ccnc1CN(CC1CCOC1)C1CC1 (stereo unspecified)	5.607	6.172
CCNC(=O)CN(CC)S(=O)(=O)c1ccc(C)cc1	59.12	46.49
Cn1ccc(NC(=O)C2CCCN(S(C)(=O)=O)C2)n1 (stereo unspecified)	2.231	13.31
CC1CN(C)CCC1=O (stereo unspecified)	-13.19	-28.2
O=S(=O)(NCC(O)CN1CCCC1)C1CCCCC1 (stereo unspecified)	38.75	-2.647
CN1C(=O)C[C@@H](C(N)=O)[C@@H]1c1cccc(Cl)c1	-0.8025	-9.591
Cc1c(C(=O)N2CCN(C3CCCC3)CC2)cnn1C	7.701	-3.768
CN(C)c1ccc(CCNC(=O)[C@H]2CCCN2)cc1	17.08	11.45
Cc1noc(C2CCCN(Cc3ccccn3)C2)n1 (stereo unspecified)	11.73	11.86
O=C(CCN1CCCCC1)Nc1cccc2c1OCO2	3.097	20.01
COc1cccc(CNc2ccccn2)c1O	53.37	37.25
CN(Cc1ccc2c(c1)OCO2)C(=O)c1cncs1	41.71	44.4
O=S1(=O)CCCN1c1ccccc1Br	19.31	9.094
O=C(N[C@@H]1CCOC[C@H]1O)c1scc2c1OCCO2	5.021	0.8549
COCCS(=O)(=O)NC(C)C1CC1 (stereo unspecified)	6.918	-1.749
CSCC(=O)N1C[C@@H](CN2CCCCCC2)[C@@H](CO)C1	-48.75	-75.46
CC(C)n1cncc1CN1CCN2CCN(C)CC2C1 (stereo unspecified)	-4.304	-3.471
CCOc1ncccc1CNC(=O)c1snc(O)c1Cl	7.706	-5.63
OC(CN1CCCSCC1)c1ccc(F)cc1 (stereo unspecified)	53.55	28.79
CN1CCCN(C(=O)NCCCN(C)S(C)(=O)=O)CC1	-4.815	-0.4341
COc1cccc(CN(C)CCN(C)C)c1OC	-3.556	-0.6749
CC(C)(C)OC(=O)N1CCOCC(CO)C1 (stereo unspecified)	3.455	-4.52
COc1cccn(CC(=O)N2CCCC(N)CC2)c1=O (stereo unspecified)	-8.723	-9.376
Cc1c[nH]c(C(=O)NC(c2nccn2C)C(C)C)n1 (stereo unspecified)	-1.147	-3.501
COc1ccccc1CCNC(=O)c1ccnn1C	47.32	36.43
CC(C)C(NS(=O)(=O)N1CCOCC1)c1ccccc1 (stereo unspecified)	51.6	11.35

8 of the entries, repeated:

COC1(CN)CCC(C(F)F)CC1 (stereo unspecified) read Mtb glucose medium: 7.84%; Mtb cholesterol medium: 3.175%.
Cc1cccc(OCC(=O)NC2CCCNC2)c1 (stereo unspecified) read Mtb glucose medium: 32.84%; Mtb cholesterol medium: 25.87%.
CN1CCCN(C(=O)NCCCN(C)S(C)(=O)=O)CC1 read Mtb glucose medium: -4.815%; Mtb cholesterol medium: -0.4341%.
Cc1c(C(=O)N2CCN(C3CCCC3)CC2)cnn1C read Mtb glucose medium: 7.701%; Mtb cholesterol medium: -3.768%.
Cc1nnc(SCCSC(C)(C)C)n1CC(N)=O read Mtb glucose medium: 15.94%; Mtb cholesterol medium: -2.795%.
Cc1scc(-c2nnc(SCC(N)=O)n2C)c1C read Mtb glucose medium: 45.52%; Mtb cholesterol medium: 39.64%.
COc1ccccc1CCNC(=O)c1ccnn1C read Mtb glucose medium: 47.32%; Mtb cholesterol medium: 36.43%.
CCO[C@H]1CN(Cc2ccccc2C#N)C[C@@H]1O read Mtb glucose medium: 10.8%; Mtb cholesterol medium: 4.033%.